In the supplement of paper PMC10849652:
Some of the results follow.

The chains behind the UniProt entries cited, without tags or fusion partners. Where a name states a change or a piece, a line headed by the entry shows the natural chain unless it says otherwise.
UniProt Q06830: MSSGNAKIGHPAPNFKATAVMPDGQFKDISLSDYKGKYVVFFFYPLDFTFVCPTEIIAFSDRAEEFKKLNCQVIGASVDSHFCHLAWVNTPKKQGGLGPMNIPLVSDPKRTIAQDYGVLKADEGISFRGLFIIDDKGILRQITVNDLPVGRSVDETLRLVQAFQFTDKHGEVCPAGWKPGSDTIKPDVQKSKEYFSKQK
UniProt Q9Y3C6: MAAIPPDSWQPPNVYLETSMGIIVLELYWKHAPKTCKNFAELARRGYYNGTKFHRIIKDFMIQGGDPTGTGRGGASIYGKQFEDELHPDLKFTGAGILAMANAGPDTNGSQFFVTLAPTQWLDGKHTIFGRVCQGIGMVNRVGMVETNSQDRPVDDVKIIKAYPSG
UniProt O43172: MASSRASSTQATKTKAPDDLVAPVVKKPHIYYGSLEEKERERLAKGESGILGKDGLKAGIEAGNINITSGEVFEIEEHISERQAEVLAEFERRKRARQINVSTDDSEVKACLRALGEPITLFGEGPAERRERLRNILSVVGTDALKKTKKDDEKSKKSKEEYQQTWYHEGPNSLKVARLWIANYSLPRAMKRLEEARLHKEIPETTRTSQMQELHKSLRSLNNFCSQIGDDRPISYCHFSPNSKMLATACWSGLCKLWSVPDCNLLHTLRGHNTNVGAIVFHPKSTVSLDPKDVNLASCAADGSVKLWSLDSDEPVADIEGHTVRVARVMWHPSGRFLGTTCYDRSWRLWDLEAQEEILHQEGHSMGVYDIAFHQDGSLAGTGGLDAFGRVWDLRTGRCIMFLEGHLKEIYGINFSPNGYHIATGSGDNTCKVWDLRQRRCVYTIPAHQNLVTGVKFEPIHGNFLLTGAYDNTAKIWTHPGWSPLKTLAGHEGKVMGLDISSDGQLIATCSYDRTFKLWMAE
UniProt Q9H875: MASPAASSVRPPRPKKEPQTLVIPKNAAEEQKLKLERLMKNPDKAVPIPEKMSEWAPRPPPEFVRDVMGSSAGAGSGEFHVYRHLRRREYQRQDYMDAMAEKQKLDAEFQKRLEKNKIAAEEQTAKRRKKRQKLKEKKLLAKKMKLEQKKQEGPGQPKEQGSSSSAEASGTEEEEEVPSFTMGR
UniProt O00743: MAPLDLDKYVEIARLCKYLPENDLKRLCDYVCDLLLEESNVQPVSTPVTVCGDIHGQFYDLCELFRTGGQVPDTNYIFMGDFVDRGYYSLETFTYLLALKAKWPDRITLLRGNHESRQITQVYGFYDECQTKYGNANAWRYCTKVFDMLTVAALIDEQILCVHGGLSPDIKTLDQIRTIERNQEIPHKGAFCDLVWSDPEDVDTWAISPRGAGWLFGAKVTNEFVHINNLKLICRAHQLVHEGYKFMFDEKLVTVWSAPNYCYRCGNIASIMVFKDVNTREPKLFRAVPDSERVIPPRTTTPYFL
UniProt P31323, whole entry, looked up: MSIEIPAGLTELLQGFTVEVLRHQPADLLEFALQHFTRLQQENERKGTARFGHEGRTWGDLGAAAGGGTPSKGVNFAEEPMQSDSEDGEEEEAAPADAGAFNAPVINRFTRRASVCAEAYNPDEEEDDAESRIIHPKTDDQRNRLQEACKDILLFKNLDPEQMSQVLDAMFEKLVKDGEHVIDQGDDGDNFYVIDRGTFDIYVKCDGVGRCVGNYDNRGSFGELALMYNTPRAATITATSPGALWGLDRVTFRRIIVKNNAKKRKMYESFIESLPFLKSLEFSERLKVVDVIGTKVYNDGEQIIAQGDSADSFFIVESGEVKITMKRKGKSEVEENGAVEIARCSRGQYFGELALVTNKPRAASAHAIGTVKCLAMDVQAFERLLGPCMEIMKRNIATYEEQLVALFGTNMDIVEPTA
UniProt Q9BZL4: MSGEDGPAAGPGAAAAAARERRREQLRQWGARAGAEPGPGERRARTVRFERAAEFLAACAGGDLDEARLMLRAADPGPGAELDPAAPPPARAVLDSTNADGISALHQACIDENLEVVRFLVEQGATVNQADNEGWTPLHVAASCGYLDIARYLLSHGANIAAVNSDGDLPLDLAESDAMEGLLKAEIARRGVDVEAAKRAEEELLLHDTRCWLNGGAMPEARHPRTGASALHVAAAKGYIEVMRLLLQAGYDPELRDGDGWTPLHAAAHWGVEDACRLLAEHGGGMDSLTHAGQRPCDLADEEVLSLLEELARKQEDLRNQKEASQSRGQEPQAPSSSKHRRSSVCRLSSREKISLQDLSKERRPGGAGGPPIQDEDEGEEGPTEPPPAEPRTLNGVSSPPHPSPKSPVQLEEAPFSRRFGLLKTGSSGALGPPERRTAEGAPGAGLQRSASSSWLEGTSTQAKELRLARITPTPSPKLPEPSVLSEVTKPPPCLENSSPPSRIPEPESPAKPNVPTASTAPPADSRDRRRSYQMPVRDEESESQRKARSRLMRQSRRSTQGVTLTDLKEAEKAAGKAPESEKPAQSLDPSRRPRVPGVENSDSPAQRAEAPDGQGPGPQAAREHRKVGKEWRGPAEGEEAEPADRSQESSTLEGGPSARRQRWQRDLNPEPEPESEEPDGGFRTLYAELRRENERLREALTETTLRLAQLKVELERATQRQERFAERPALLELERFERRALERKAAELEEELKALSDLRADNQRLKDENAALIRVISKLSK
UniProt Q9UGJ0: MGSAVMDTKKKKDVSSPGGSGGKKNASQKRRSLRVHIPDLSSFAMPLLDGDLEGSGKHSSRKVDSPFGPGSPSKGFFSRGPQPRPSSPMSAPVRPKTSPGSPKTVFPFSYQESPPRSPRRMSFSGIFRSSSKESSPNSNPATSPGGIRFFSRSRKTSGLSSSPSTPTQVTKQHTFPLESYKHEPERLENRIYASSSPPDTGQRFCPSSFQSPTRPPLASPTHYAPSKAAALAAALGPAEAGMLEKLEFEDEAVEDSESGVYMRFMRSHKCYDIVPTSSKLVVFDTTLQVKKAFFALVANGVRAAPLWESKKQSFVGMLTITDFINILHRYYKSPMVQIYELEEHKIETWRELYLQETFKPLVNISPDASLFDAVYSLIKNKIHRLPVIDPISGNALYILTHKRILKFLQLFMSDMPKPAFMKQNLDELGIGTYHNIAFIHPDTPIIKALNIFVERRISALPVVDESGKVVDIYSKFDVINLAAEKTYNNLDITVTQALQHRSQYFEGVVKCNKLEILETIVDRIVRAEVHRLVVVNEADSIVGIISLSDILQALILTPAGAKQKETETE
UniProt Q8NAV1: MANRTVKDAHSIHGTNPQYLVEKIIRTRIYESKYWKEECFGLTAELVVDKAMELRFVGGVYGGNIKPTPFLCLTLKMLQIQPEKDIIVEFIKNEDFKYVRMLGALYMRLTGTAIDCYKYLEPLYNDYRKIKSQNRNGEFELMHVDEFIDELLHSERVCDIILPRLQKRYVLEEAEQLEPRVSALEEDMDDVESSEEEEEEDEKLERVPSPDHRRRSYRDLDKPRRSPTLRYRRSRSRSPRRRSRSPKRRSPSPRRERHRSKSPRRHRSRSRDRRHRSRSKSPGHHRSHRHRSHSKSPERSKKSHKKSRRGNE
UniProt P78395, whole entry, looked up: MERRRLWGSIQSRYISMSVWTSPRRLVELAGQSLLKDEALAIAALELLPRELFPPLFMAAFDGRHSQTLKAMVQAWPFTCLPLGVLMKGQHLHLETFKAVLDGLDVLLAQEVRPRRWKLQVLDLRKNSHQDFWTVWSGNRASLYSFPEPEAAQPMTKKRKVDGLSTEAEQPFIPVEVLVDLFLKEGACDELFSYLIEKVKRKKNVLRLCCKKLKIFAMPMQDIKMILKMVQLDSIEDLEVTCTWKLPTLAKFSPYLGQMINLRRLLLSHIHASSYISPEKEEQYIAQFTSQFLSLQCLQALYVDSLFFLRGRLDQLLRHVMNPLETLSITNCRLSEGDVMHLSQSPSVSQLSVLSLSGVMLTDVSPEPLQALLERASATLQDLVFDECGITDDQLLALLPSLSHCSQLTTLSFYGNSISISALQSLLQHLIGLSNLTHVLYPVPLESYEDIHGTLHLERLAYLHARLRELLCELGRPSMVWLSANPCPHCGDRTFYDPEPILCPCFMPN
UniProt P49593: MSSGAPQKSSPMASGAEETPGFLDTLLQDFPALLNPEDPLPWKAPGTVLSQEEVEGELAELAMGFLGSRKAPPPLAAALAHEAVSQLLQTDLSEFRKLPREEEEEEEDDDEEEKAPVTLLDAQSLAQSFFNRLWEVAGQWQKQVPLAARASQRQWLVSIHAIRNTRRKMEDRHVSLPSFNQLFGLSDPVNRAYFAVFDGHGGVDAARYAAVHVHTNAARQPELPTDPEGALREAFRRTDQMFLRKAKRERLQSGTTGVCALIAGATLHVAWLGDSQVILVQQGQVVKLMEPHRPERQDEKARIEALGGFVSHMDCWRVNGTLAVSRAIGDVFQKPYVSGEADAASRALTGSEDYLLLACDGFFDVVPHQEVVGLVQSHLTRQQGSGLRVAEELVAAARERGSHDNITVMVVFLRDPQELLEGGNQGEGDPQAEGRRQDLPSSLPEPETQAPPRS
UniProt O15091: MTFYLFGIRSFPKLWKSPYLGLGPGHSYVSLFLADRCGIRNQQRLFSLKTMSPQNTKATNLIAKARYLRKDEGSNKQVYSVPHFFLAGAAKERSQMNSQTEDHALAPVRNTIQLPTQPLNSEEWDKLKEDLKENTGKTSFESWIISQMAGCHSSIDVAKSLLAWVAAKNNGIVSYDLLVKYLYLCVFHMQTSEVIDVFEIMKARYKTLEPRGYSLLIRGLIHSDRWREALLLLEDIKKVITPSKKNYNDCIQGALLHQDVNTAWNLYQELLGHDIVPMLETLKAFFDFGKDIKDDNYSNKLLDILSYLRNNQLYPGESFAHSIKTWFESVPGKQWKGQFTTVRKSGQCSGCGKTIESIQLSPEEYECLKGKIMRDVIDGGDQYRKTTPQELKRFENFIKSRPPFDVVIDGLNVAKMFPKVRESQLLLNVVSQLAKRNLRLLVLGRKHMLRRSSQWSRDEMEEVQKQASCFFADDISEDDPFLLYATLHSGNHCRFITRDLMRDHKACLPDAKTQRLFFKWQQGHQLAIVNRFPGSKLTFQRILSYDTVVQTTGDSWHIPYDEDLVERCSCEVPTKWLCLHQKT
UniProt Q6P2P2: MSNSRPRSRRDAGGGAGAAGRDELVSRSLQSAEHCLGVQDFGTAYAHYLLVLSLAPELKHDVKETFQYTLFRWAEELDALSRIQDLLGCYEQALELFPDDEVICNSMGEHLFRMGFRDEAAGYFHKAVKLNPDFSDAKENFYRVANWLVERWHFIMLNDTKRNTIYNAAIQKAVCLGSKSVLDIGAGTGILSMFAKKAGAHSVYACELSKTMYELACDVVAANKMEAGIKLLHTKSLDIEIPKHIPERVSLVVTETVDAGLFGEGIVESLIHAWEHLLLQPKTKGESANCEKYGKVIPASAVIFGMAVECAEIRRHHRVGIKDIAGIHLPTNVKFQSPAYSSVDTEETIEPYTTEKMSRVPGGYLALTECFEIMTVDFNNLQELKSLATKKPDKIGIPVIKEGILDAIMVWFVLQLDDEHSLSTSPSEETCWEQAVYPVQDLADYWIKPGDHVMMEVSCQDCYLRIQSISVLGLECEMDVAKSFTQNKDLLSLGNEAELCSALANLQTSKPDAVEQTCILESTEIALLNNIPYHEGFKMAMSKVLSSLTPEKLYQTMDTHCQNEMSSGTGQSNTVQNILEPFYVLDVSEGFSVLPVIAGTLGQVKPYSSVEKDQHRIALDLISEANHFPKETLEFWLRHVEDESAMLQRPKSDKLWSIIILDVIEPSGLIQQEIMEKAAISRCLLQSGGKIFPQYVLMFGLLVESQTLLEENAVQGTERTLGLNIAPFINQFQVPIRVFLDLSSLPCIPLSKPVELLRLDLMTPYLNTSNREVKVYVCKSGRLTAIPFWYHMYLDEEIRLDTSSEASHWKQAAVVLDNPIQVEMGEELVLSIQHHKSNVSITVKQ
UniProt P14314: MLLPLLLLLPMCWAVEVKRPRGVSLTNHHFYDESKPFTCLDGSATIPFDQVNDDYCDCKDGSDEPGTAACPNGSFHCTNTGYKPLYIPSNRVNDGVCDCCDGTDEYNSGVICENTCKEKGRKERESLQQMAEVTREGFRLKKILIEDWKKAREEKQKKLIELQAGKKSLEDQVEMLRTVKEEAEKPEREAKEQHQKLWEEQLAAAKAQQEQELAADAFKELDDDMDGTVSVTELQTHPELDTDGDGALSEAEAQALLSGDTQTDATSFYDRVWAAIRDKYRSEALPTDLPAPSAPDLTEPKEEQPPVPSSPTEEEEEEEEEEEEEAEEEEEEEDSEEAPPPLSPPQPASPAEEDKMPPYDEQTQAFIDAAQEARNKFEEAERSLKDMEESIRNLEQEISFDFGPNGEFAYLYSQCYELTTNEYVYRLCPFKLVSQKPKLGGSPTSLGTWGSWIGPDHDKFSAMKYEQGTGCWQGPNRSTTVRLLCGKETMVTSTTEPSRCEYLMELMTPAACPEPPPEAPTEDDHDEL
UniProt Q96A00: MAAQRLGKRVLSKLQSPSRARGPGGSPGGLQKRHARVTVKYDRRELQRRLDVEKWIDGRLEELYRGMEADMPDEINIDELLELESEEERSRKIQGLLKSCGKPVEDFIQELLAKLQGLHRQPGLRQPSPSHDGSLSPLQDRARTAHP

Tests used:
Assay in all cases: log2 fold change, soluble protein after heating vs DMSO (PISA); higher = thermal stabilisation; K562 lysate, 10 uM; active = over 0.2 and 3.5 SD of the protein, either way, in both replicates (recomputed)
erlotinib = compound: C#Cc1cccc(Nc2ncnc3cc(OCCOC)c(OCCOC)cc23)c1 [erlotinib]
Procedure, shortened: (§1)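 The values are log-two fold changes in thermal stability compared with solvent controls and come from duplicates. They were obtained by TMTpro 16plex LC-MS/MS, with channel sums equalised, on the supernatant after 21,000xg for 90 min. That supernatant came from crude K562 extract at 1 mg/mL protein treated with 10 μM compound for 30 min, heated for 3 min across 48°C-58°C, pooled and brought to 0.5% NP-40 at 4°C.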

[1] = compound: C/C(=N\NC(=O)C1=CC(=CC=C1)S(=O)(=O)N2CCOCC2)/C3=C(C=CC(=C3)Cl)O
Procedure, shortened: as §1

[2] = compound: C1=CC(=CC=C1C2=NC3=C(N2)C=C(C=C3)C(=O)N)OC4=CC=C(C=C4)Cl
Procedure, shortened: as §1

[3] = compound: C1=CC2=C(C=CC(=C2)/C=C\3/C(=O)NC(=NCC4=CC=CS4)S3)N=C1
Procedure, shortened: as §1

[4] = compound: C1=CC2=NC=CN=C2C=C1/C=C/3\C(=O)NC(=O)S3
Procedure, shortened: as §1

[5] = compound: C1=CC=C(C=C1)C2=NC(=C(N2)C3=CC=NC=C3)C4=CC(=C(C=C4)Cl)O
Procedure, shortened: as §1

[6] = compound: C1=CC=C2C(=C1)C3=NNC4=CC=CC(=C43)C2=O
Procedure, shortened: as §1

[7] = compound: C1CCN(C1)C(=O)NC2=CC=CC(=C2)NC3=NC=C(C(=N3)NCCC4=CN=CN4)Br
Procedure, shortened: as §1

[8] = compound: C1CN(CCC1(CC2=CC=C(C=C2)Cl)N)C3=NC=NC4=C3C=CN4
Procedure, shortened: as §1

IRAK-1-4 Inhibitor I = compound: C1COCCN1CCN2C3=CC=CC=C3N=C2NC(=O)C4=CC(=CC=C4)[N+](=O)[O-] [IRAK-1-4 Inhibitor I]
Procedure, shortened: as §1

Target	log2 fold change (erlotinib)	log2 fold change [1]	log2 fold change [2]	log2 fold change [3]	log2 fold change [4]	log2 fold change [5]	log2 fold change [6]	log2 fold change [7]	log2 fold change [8]	log2 fold change (IRAK-1-4 Inhibitor I)
PRDX1 (UniProt Q06830)	inactive: -0.013	inactive: 0.015	inactive: 0.071	inactive: -0.009	inactive: -0.02	inactive: -0.021	inactive: 0.01	inactive: 0.002	inactive: -0.01	inactive: -0.009
PPIL1 (UniProt Q9Y3C6)	inactive: 0	inactive: 0.026	inactive: -0.039	inactive: 0.021	inactive: 0.016	inactive: 0	inactive: -0.022	inactive: -0.009	inactive: 0.038	inactive: 0.016
PPP1R13L (UniProt Q8WUF5)	inactive: 0.014	inactive: 0.006	inactive: 0.034	inactive: -0.049	inactive: -0.078	inactive: 0.01	inactive: -0.064	inactive: -0.036	inactive: 0.079	inactive: 0
PRPF4 (UniProt O43172)	inactive: -0.004	inactive: -0.044	inactive: 0.042	inactive: 0.007	inactive: 0.01	inactive: 0.018	inactive: 0.022	inactive: -0.021	inactive: 0.018	inactive: 0.011
PREP (UniProt P48147)	inactive: 0.026	inactive: -0.016	inactive: 0.028	inactive: -0.007	inactive: -0.002	inactive: 0.002	inactive: -0.002	inactive: -0.024	inactive: 0.014	inactive: -0.007
PPP1R9B (UniProt Q96SB3)	inactive: -0.018	inactive: -0.004	inactive: 0.021	inactive: 0.002	inactive: 0.032	inactive: -0.015	inactive: 0.028	inactive: -0.03	inactive: -0.009	inactive: -0.01
PRCP (UniProt P42785)	inactive: 0.003	inactive: -0.031	inactive: -0.016	inactive: 0.011	inactive: 0.031	inactive: -0.001	inactive: 0.024	inactive: -0.025	inactive: 0	inactive: 0.043
PRPF31 (UniProt Q8WWY3)	inactive: -0.022	inactive: -0.053	inactive: -0.033	inactive: 0.013	inactive: -0.025	inactive: 0.046	inactive: 0.021	inactive: -0.068	inactive: -0.036	inactive: -0.072
PRKRIP1 (UniProt Q9H875)	inactive: -0.035	inactive: -0.044	inactive: 0.014	inactive: 0.006	inactive: -0.103	inactive: 0.049	inactive: 0.012	inactive: -0.034	inactive: -0.014	inactive: -0.014
PPP6C isoform 3 (UniProt O00743)	inactive: -0.011	inactive: -0.001	inactive: 0.002	inactive: 0.005	inactive: -0.002	inactive: 0.003	inactive: 0.026	inactive: 0.016	inactive: 0.02	inactive: 0.011
PRKAR2B (UniProt P31323)	inactive: 0	inactive: 0.066	inactive: -0.022	inactive: -0.025	inactive: 0.018	inactive: -0.03	inactive: -0.116	inactive: -0.16	inactive: -0.131	inactive: -0.016
PPP1R12C isoform 4 (UniProt Q9BZL4)	inactive: 0.061	inactive: -0.078	inactive: 0.037	inactive: -0.055	inactive: -0.021	inactive: 0	inactive: -0.009	inactive: 0.013	inactive: 0.007	inactive: -0.002
PRKAG2 (UniProt Q9UGJ0)	inactive: -0.048	inactive: -0.033	inactive: -0.018	inactive: -0.038	inactive: -0.003	inactive: -0.015	inactive: 0.148	inactive: 0.144	inactive: 0.028	inactive: 0.075
PRKCA (UniProt P17252)	inactive: 0.031	inactive: -0.086	inactive: -0.019	inactive: 0.108	inactive: 0	inactive: 0.044	inactive: -0.088	inactive: -0.037	inactive: 0.044	inactive: 0.005
PRPF38A (UniProt Q8NAV1)	inactive: -0.012	inactive: -0.016	inactive: 0.049	inactive: -0.025	inactive: 0.044	inactive: 0.05	inactive: 0.042	inactive: 0.005	inactive: -0.018	inactive: 0.057
PRAME (UniProt P78395)	inactive: 0.02	inactive: -0.056	inactive: -0.001	inactive: -0.027	inactive: -0.037	inactive: 0.013	inactive: -0.043	inactive: -0.004	inactive: 0.007	inactive: -0.008
PPM1F (UniProt P49593)	inactive: -0.013	inactive: 0.001	inactive: -0.048	inactive: 0.022	inactive: 0.001	inactive: -0.047	inactive: 0.005	inactive: 0.012	inactive: -0.015	inactive: 0.007
PRORP (UniProt O15091)	inactive: 0	inactive: -0.067	inactive: 0.132	inactive: 0.049	inactive: 0.349	inactive: -0.122	inactive: -0.08	inactive: -0.102	inactive: 0.047	inactive: -0.055
PRMT9 (UniProt Q6P2P2)	inactive: 0.003	inactive: -0.001	inactive: 0.003	inactive: 0.027	inactive: -0.001	inactive: 0.029	inactive: 0.026	inactive: -0.005	inactive: -0.017	inactive: -0.004
PRMT7 (UniProt Q9NVM4)	inactive: -0.042	inactive: 0.004	inactive: 0.024	inactive: 0.038	inactive: 0.008	inactive: -0.023	inactive: -0.083	inactive: -0.033	inactive: -0.031	inactive: -0.008
PRKAG1 (UniProt P54619)	inactive: -0.043	inactive: -0.045	inactive: -0.024	inactive: -0.001	inactive: -0.021	inactive: 0.013	inactive: 0.092	inactive: 0.158	inactive: 0.05	inactive: 0.131
PPOX (UniProt P50336)	inactive: -0.044	active: 0.532	inactive: 0	inactive: -0.015	inactive: -0.04	inactive: 0.025	inactive: 0.014	inactive: 0	inactive: -0.041	inactive: -0.016
PRKCSH isoform 2 (UniProt P14314)	inactive: 0.038	inactive: -0.107	inactive: 0.084	inactive: 0.024	inactive: 0.001	inactive: -0.054	inactive: -0.011	inactive: -0.009	inactive: 0.015	inactive: 0.001
PPP4R4 (UniProt Q6NUP7)	inactive: 0.126	inactive: -0.035	inactive: 0.07	inactive: -0.02	inactive: -0.058	inactive: 0.111	inactive: -0.273	inactive: -0.001	inactive: 0.119	inactive: 0.153
PPP1R14A (UniProt Q96A00)	inactive: 0.031	inactive: 0.058	inactive: 0.056	inactive: -0.064	inactive: -0.015	inactive: 0.035	inactive: 0.023	inactive: -0.004	inactive: -0.006	inactive: 0.004
PPP2R3C (UniProt Q969Q6)	inactive: -0.061	inactive: -0.009	inactive: -0.126	inactive: -0.025	inactive: -0.019	inactive: 0.033	inactive: -0.032	inactive: -0.023	inactive: -0.035	inactive: -0.018
PRMT6 (UniProt Q96LA8)	inactive: 0.009	inactive: 0.008	inactive: 0.006	inactive: 0.008	inactive: -0.027	inactive: 0.025	inactive: -0.022	inactive: -0.008	inactive: -0.01	inactive: -0.065
PPT1 (UniProt P50897)	inactive: 0.019	inactive: -0.076	inactive: 0.105	inactive: -0.009	inactive: 0.034	inactive: -0.042	inactive: -0.014	inactive: -0.015	inactive: 0.011	inactive: -0.011
PRKAA1 isoform 2 (UniProt Q13131)	inactive: -0.037	inactive: -0.052	inactive: -0.001	inactive: -0.004	inactive: -0.008	inactive: -0.03	inactive: 0.179	inactive: 0.248	inactive: 0.024	inactive: 0.073

Rewritten bar-delimited: entries from further up
Target | log2 fold change (erlotinib) | log2 fold change [1] | log2 fold change [2] | log2 fold change [3] | log2 fold change [4] | log2 fold change [5] | log2 fold change [6] | log2 fold change [7] | log2 fold change [8] | log2 fold change (IRAK-1-4 Inhibitor I)
PRCP (UniProt P42785) | inactive: 0.003 | inactive: -0.031 | inactive: -0.016 | inactive: 0.011 | inactive: 0.031 | inactive: -0.001 | inactive: 0.024 | inactive: -0.025 | inactive: 0 | inactive: 0.043
PRPF31 (UniProt Q8WWY3) | inactive: -0.022 | inactive: -0.053 | inactive: -0.033 | inactive: 0.013 | inactive: -0.025 | inactive: 0.046 | inactive: 0.021 | inactive: -0.068 | inactive: -0.036 | inactive: -0.072
PRKAG2 (UniProt Q9UGJ0) | inactive: -0.048 | inactive: -0.033 | inactive: -0.018 | inactive: -0.038 | inactive: -0.003 | inactive: -0.015 | inactive: 0.148 | inactive: 0.144 | inactive: 0.028 | inactive: 0.075
PRPF38A (UniProt Q8NAV1) | inactive: -0.012 | inactive: -0.016 | inactive: 0.049 | inactive: -0.025 | inactive: 0.044 | inactive: 0.05 | inactive: 0.042 | inactive: 0.005 | inactive: -0.018 | inactive: 0.057
PRAME (UniProt P78395) | inactive: 0.02 | inactive: -0.056 | inactive: -0.001 | inactive: -0.027 | inactive: -0.037 | inactive: 0.013 | inactive: -0.043 | inactive: -0.004 | inactive: 0.007 | inactive: -0.008
PRMT9 (UniProt Q6P2P2) | inactive: 0.003 | inactive: -0.001 | inactive: 0.003 | inactive: 0.027 | inactive: -0.001 | inactive: 0.029 | inactive: 0.026 | inactive: -0.005 | inactive: -0.017 | inactive: -0.004
